From paper PMC11832904
Results are given in words; binding and its absence hold for the method and conditions named. Binding seen in cells or lysates may run through a third protein. A yes stands for co-enrichment or nearness to the bait. Other partners may have been found. For some assays here: A no says only that the protein was not detected with the bait. Blank lines part the entries; values can stand above or below the molecule they belong to.

The chains behind the UniProt entries cited, without tags or fusion partners. Where a name states a change or a piece, a line headed by the entry shows the natural chain unless it says otherwise. A line that says so, or that is headed by a name, gives the form on record, which may keep a tag or linker.
UniProt Q9H6L5: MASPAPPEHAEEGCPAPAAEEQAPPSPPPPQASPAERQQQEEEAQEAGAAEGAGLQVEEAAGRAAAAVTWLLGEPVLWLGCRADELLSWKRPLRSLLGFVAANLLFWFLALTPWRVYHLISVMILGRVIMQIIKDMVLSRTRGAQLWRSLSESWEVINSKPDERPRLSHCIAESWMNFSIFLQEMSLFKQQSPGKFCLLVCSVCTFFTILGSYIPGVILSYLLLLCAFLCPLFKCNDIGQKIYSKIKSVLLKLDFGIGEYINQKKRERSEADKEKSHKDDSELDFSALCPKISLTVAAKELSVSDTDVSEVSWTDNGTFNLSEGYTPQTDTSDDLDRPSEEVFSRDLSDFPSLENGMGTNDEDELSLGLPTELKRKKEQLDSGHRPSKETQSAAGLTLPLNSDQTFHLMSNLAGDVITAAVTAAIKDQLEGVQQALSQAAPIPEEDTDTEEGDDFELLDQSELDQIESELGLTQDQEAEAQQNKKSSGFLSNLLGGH
V1-FAM134B2/V2-FAM134B2 (Q9H6L5-2, form named): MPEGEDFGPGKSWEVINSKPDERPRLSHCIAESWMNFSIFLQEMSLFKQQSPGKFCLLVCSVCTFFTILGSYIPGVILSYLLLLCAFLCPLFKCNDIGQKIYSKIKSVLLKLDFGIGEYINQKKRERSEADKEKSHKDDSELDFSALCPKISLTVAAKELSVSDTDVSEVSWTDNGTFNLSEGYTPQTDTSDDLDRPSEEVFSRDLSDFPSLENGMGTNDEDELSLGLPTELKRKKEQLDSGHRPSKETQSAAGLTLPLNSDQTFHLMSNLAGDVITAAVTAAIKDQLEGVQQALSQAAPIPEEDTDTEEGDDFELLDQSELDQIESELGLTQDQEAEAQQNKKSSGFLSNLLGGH

Key:
[1] = biological target: V1-FAM134B1/V2-FAM134B1 (human) (UniProt Q9H6L5); assay: split reporter + affinity purification with mass spectrometry; BiCAP: V1- and V2-tagged FAM134B isoforms co-expressed in C2C12 myotubes (8 h doxycycline); reconstituted Venus precipitated with GFP-Trap beads (1 h, 4 °C; 150 mM NaCl, 50 mM Tris-HCl pH 7.5, 1% NP-40); on-bead digestion, LC-MS/MS
[2] = biological target: V1-FAM134B2/V2-FAM134B2 (human) (UniProt Q9H6L5); assay: as above
[3] = biological target: T1, RFP-Fam134b1 (not stated (human or mouse cDNA cloned)) (UniProt Q8VE91); assay: affinity purification with mass spectrometry; RFP-Fam134b1 or RFP-Fam134b2 precipitated with anti-RFP agarose (4 h, 4 °C) from lysates of differentiated C2C12 myotubes; IP-MS
T1 sequence: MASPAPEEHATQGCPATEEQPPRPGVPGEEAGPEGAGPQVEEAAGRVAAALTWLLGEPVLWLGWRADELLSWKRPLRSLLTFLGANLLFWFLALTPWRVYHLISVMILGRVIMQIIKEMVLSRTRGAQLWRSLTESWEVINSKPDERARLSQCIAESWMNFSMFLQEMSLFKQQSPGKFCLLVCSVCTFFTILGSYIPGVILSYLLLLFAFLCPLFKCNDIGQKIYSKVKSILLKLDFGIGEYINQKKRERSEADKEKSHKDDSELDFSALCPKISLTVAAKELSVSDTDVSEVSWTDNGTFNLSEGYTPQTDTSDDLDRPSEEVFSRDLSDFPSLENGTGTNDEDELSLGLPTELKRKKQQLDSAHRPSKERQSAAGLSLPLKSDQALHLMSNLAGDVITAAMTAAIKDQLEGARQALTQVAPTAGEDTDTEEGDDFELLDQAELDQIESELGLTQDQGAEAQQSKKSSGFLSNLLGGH

[4] = biological target: RFP-Fam134b2 (not stated (human or mouse cDNA cloned)); assay: as above

Molecule: V1-FAM134B1/V2-FAM134B1 (from UniProt Q9H6L5 1-497)
- binding [1]: binds

Molecule: endogenous Fam134b2 (mouse (endogenous in C2C12 myotubes))
- binding [3]: binds

More lines, now with the values ahead:

- binding [1]: binds
- binding [2]: binds
Molecule: V1-FAM134B2/V2-FAM134B2 (from UniProt Q9H6L5-2 1-356)

- binding [4]: no binding
B1: endogenous Fam134b1 (protein, UniProt Q8VE91 1-480)
chain: MASPAPEEHATQGCPATEEQPPRPGVPGEEAGPEGAGPQVEEAAGRVAAALTWLLGEPVLWLGWRADELLSWKRPLRSLLTFLGANLLFWFLALTPWRVYHLISVMILGRVIMQIIKEMVLSRTRGAQLWRSLTESWEVINSKPDERARLSQCIAESWMNFSMFLQEMSLFKQQSPGKFCLLVCSVCTFFTILGSYIPGVILSYLLLLFAFLCPLFKCNDIGQKIYSKVKSILLKLDFGIGEYINQKKRERSEADKEKSHKDDSELDFSALCPKISLTVAAKELSVSDTDVSEVSWTDNGTFNLSEGYTPQTDTSDDLDRPSEEVFSRDLSDFPSLENGTGTNDEDELSLGLPTELKRKKQQLDSAHRPSKERQSAAGLSLPLKSDQALHLMSNLAGDVITAAMTAAIKDQLEGARQALTQVAPTAGEDTDTEEGDDFELLDQAELDQIESELGLTQDQGAEAQQSKKSSGFLSNLLGGH
